Data as given in the supplement of paper PMC10849652.
The list shows a part of the results.

The chains behind the UniProt entries cited, without tags or fusion partners. Where a name states a change or a piece, a line headed by the entry shows the natural chain unless it says otherwise.
UniProt Q8NCL4: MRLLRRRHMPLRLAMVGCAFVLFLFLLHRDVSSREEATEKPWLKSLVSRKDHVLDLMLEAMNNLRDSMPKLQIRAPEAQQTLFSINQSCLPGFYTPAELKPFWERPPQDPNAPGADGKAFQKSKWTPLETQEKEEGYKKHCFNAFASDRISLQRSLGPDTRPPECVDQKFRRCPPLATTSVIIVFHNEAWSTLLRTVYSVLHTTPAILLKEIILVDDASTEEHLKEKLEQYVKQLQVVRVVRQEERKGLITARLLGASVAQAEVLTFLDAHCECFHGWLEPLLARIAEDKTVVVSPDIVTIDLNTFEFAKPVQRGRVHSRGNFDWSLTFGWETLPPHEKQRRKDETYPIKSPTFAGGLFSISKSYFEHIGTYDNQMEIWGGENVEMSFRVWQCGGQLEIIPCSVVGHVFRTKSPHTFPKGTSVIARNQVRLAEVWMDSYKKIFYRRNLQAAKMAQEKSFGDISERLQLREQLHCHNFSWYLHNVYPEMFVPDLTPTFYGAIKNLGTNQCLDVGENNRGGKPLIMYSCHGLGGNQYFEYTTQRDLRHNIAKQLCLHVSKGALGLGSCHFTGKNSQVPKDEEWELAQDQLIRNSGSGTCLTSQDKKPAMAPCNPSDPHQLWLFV
UniProt Q86XX4: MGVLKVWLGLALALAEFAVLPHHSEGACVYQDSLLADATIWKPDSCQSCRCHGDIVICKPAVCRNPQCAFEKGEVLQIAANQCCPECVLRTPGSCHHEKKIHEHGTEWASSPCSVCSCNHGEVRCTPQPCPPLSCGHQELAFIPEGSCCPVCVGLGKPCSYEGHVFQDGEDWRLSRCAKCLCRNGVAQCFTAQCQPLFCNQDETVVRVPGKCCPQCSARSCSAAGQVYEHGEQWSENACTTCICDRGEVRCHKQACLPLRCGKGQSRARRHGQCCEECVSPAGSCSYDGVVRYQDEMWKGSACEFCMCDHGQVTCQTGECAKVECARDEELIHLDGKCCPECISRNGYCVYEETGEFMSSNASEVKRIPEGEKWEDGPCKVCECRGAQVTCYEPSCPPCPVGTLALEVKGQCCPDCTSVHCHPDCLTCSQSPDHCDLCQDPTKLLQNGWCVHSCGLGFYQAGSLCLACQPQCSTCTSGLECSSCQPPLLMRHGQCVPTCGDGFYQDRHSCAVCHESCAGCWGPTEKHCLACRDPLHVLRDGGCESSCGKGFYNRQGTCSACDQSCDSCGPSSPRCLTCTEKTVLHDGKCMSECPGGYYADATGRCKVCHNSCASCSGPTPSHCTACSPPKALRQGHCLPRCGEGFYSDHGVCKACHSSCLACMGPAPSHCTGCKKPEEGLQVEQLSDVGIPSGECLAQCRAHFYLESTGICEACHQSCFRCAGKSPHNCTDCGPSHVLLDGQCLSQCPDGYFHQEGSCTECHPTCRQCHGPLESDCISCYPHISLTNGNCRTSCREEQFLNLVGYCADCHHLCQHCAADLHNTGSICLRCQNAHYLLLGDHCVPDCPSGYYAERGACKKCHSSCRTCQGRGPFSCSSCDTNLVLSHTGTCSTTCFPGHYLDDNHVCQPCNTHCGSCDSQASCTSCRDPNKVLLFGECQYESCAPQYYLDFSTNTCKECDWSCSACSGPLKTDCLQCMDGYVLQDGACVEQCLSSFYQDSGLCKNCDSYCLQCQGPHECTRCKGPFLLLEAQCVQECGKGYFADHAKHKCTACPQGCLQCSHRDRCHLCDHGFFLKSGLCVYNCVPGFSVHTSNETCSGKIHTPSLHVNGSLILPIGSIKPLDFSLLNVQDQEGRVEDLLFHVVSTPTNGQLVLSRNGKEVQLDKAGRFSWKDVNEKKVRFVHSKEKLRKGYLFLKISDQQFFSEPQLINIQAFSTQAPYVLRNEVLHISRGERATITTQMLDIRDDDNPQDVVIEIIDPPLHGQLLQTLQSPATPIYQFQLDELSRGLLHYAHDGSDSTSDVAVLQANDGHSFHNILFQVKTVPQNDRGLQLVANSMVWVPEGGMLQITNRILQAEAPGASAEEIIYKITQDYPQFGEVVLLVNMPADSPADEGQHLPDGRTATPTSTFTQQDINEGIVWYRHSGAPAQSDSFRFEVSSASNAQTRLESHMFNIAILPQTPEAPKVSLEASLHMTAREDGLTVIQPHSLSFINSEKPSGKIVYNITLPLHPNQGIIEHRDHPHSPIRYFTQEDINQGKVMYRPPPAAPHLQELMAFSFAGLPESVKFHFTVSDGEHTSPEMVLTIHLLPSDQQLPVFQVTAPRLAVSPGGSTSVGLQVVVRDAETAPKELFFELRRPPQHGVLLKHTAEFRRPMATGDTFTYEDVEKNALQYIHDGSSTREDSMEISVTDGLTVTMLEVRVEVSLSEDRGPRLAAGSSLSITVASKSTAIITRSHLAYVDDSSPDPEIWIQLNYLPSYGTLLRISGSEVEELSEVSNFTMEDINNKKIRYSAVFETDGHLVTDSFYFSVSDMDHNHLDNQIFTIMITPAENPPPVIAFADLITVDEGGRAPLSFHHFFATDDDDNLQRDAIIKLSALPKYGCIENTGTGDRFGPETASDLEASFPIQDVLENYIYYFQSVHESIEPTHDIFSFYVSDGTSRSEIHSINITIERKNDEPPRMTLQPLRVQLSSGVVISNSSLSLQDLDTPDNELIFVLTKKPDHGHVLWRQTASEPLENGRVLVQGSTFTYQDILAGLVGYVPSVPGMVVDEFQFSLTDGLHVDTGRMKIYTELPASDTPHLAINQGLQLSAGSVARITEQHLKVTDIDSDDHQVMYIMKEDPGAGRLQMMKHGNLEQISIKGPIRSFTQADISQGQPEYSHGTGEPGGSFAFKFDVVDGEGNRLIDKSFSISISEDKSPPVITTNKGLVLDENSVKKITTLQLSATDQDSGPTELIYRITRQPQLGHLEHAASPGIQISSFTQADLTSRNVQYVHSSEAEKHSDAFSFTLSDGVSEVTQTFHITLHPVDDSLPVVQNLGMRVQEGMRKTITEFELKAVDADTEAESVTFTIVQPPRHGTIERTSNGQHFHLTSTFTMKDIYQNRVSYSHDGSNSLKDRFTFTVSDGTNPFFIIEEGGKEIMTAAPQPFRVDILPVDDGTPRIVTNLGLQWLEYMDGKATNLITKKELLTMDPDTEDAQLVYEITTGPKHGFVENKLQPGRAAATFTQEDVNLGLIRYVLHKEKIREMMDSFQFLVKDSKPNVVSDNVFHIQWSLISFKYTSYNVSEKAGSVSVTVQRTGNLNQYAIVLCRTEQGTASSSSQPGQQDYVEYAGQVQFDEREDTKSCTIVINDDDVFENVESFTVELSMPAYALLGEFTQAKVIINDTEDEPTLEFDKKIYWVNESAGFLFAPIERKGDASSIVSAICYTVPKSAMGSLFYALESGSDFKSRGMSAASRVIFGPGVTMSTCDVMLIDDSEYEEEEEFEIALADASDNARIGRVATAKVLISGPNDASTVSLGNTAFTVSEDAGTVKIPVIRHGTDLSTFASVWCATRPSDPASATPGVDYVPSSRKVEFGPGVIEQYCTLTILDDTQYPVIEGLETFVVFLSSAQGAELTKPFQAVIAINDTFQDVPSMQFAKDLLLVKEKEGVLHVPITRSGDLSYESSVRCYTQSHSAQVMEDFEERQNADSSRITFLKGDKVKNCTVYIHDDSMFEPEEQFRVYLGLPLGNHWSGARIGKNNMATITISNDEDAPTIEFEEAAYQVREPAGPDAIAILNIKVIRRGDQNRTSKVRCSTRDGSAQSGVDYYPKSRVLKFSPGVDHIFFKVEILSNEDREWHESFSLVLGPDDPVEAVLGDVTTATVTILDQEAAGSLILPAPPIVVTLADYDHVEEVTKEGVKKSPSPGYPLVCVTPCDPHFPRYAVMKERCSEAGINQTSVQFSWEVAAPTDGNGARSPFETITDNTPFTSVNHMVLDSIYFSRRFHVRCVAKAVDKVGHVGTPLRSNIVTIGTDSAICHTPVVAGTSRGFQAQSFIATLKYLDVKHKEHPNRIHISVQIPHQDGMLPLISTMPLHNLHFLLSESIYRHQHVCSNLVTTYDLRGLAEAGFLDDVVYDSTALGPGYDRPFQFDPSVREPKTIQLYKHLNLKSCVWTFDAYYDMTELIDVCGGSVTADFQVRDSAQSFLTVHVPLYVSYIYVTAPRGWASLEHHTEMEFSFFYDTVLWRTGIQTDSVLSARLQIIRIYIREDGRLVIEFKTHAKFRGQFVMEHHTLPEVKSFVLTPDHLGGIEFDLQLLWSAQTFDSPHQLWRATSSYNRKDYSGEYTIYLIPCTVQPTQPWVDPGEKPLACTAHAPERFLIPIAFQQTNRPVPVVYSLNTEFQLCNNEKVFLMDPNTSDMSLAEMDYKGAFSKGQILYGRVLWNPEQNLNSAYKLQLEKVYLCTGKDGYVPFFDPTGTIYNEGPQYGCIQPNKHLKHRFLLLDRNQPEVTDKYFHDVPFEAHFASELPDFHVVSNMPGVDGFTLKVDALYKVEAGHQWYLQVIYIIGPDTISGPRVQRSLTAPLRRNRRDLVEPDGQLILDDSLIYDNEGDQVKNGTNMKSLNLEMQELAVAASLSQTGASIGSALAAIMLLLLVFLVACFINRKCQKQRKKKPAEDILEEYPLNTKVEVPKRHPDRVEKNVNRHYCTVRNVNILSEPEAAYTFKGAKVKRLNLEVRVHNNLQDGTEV
UniProt Q92837: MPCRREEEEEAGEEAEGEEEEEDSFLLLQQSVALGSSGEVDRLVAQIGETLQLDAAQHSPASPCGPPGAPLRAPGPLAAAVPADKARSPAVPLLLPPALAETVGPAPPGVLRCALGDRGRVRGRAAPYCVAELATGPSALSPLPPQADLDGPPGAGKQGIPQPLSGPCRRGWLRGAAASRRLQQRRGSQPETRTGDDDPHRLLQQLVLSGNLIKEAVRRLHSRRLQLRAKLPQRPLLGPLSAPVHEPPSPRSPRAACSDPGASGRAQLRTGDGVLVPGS
UniProt Q8WWW8: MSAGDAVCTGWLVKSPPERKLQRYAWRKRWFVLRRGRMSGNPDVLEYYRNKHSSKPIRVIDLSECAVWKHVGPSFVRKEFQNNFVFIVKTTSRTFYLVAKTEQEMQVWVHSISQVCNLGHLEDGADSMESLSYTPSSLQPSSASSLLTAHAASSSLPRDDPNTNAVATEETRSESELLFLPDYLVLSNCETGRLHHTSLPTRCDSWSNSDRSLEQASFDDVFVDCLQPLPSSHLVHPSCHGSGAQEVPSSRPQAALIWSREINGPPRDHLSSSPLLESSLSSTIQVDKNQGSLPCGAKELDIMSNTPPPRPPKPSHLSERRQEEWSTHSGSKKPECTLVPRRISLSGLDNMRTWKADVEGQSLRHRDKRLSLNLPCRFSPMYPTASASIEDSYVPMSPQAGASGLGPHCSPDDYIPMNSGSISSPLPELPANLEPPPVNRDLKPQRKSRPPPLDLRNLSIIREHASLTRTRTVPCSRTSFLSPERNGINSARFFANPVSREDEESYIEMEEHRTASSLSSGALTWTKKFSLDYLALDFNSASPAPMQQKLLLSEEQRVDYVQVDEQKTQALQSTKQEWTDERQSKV
UniProt Q05932: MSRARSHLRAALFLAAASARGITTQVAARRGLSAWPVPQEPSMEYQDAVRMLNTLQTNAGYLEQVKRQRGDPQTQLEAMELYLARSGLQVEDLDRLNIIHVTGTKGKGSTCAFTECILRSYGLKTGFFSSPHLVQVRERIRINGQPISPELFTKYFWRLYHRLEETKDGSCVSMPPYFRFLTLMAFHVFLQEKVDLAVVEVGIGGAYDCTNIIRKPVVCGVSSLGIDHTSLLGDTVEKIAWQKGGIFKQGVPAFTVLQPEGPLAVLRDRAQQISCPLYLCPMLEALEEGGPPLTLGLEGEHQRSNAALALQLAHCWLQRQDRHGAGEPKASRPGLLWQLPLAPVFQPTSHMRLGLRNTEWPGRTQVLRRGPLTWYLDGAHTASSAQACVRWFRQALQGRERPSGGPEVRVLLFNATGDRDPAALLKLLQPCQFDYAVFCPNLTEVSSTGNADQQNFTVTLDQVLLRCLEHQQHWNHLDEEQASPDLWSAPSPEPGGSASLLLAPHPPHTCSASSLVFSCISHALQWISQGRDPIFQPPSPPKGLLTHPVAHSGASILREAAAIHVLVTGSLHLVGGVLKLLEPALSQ
UniProt Q9UM11, whole entry, looked up: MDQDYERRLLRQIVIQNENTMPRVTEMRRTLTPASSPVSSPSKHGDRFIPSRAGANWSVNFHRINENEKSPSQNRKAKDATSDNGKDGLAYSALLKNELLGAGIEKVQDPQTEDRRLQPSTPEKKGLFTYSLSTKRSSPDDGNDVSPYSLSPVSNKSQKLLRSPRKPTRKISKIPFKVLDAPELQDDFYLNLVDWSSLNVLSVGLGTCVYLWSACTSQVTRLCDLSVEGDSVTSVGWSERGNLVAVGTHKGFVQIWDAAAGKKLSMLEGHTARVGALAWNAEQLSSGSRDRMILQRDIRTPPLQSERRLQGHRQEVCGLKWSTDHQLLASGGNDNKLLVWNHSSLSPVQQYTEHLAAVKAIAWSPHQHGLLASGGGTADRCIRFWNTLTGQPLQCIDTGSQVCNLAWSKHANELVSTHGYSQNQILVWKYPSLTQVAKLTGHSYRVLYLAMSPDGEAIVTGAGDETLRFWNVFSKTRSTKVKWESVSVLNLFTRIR

How the values were obtained:
Test in all cases: log2 fold change, soluble protein after heating vs DMSO (PISA); higher = thermal stabilisation; K562 lysate, 10 uM; active = over 0.2 and 3.5 SD of the protein, either way, in both replicates (recomputed)
vemurafenib = compound: CCCS(=O)(=O)Nc1ccc(F)c(C(=O)c2c[nH]c3ncc(-c4ccc(Cl)cc4)cc23)c1F [vemurafenib]
How it was run: (§1)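 Thermal stability, expressed as log-two fold change relative to solvent controls, is given from duplicates. Crude K562 extract in PBS pH 7.4 with 1 mM MgCl2, at 1 mg/mL protein, was treated with 10 μM compound for 30 min and heated in aliquots for 3 min across 48°C-58°C. After pooling, adjustment to 0.5% NP-40 at 4°C and centrifugation at 21,000xg for 90 min, supernatant protein was measured by TMTpro 16plex LC-MS/MS with channel sums equalised.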

[1] = compound: CCCS(=O)(=O)Nc1ccc(F)c(C(=O)c2c[nH]c3ncc(Cl)cc23)c1F
How it was run: as §1

barasertib = compound: CCN(CCCOc1ccc2c(Nc3cc(CC(=O)Nc4cccc(F)c4)[nH]n3)ncnc2c1)CCOP(=O)(O)O [barasertib]
How it was run: as §1

[2] = compound: CC[C@@H]1C(=O)N(C)c2cnc(Nc3ccc(C(=O)NC4CCN(C)CC4)cc3OC)nc2N1C1CCCC1
How it was run: as §1

volasertib = compound: CC[C@@H]1C(=O)N(C)c2cnc(Nc3ccc(C(=O)N[C@H]4CC[C@H](N5CCN(CC6CC6)CC5)CC4)cc3OC)nc2N1C(C)C [volasertib]
How it was run: as §1

[3] = compound: CCn1c(C(=O)N(C2CC2)C2CC2)cc2c3c(ncn3C)c(Nc3cc(C)n(C)n3)nc21
How it was run: as §1

[4] = compound: CCn1cc(-c2ccnc3[nH]c(-c4cccc(CN(C)C)c4)cc23)c(-c2ccc(NC(=O)N(C)C)cc2)n1
How it was run: as §1

[5] = compound: CN1CCC(CNc2ccc3ncc(-c4cccc(OC(F)(F)F)c4)n3n2)CC1
How it was run: as §1

sotrastaurin = compound: CN1CCN(c2nc(C3=C(c4c[nH]c5ccccc45)C(=O)NC3=O)c3ccccc3n2)CC1 [sotrastaurin]
How it was run: as §1

saracatinib = compound: CN1CCN(CCOc2cc(OC3CCOCC3)c3c(Nc4c(Cl)ccc5c4OCO5)ncnc3c2)CC1 [saracatinib]
How it was run: as §1

Measured: log2 fold change

GAA (UniProt P10253)
inactive: vemurafenib 0.068 | [1] -0.101 | barasertib -0.063 | [2] -0.006 | volasertib 0.015 | [3] -0.021 | [4] 0.122 | [5] 0.027 | sotrastaurin -0.039

FYTTD1 (UniProt Q96QD9)
inactive: vemurafenib 0.057 | barasertib 0.058 | [2] -0.444 | saracatinib -0.085 | sotrastaurin 0.028

GALNT11 (UniProt Q8NCW6)
inactive: vemurafenib 0.009 | [1] 0.097 | [2] 0.035 | volasertib -0.055 | [3] 0.063 | [4] -0.244 | [5] 0.078 | saracatinib 0.071 | sotrastaurin -0.019

GALNT6 (UniProt Q8NCL4)
inactive: vemurafenib 0.154 | [1] -0.04 | barasertib -0.044 | [2] -0.027 | volasertib 0.012 | [4] -0.017 | [5] 0.16 | saracatinib 0.148 | sotrastaurin 0.022

FRMD8 (UniProt Q9BZ67)
inactive: vemurafenib 0.019 | barasertib -0.127 | [2] 0.06 | [4] -0.126 | [5] -0.063 | saracatinib 0.177 | sotrastaurin 0

GDI2 (UniProt Q5SX86)
inactive: vemurafenib -0.609 | [1] 0.014 | barasertib 0.484 | volasertib -0.005 | [3] -0.074 | [4] 0.07 | [5] -0.075 | saracatinib 0.117

FRAS1 isoform 2 (UniProt Q86XX4)
inactive: vemurafenib 0.11 | saracatinib -0.02 | sotrastaurin -0.045

FRMPD2 (UniProt Q68DX3)
inactive: vemurafenib 0.03 | [1] -0.038 | [2] -0.091 | volasertib 0.084 | [4] 0.087 | [5] -0.164

GDPD5 (UniProt Q8WTR4)
inactive: vemurafenib 0.252 | sotrastaurin -0.05

FTSJ1 isoform 2 (UniProt Q9UET6)
inactive: vemurafenib -0.164 | [1] 0.021 | [2] -0.024 | volasertib 0.013 | [4] -0.019 | [5] 0.047

FRAT1 (UniProt Q92837)
inactive: vemurafenib -0.101 | [2] 0.111 | saracatinib -0.033

GALNT3 (UniProt Q14435)
inactive: barasertib 0.008 | [2] 0.055 | sotrastaurin 0.152

GART (UniProt C9JZG2)
inactive: [1] -0.014 | barasertib 0.086 | [2] -0.021 | volasertib 0.06 | [3] -0.043 | [4] 0.135 | [5] 0.085 | sotrastaurin 0.09

GAB3 isoform 2 (UniProt Q8WWW8)
inactive: [2] -0.204 | [3] -0.242 | saracatinib -0.059 | sotrastaurin 0.047

FPGS (UniProt Q05932)
inactive: [2] 0.05 | [3] 0.027 | saracatinib 0.099

GBP2 (UniProt P32456)
inactive: [1] 0.02 | [2] -0.007 | volasertib -0.14 | [3] -0.065 | [4] -0.337 | [5] 0.239 | saracatinib 0.121 | sotrastaurin 0.077

FRYL isoform 2 (UniProt O94915)
inactive: [4] 0.191 | [5] -0.112

FZD5 (UniProt Q13467)
inactive: [1] -0.076 | barasertib 0.112 | volasertib 0.003 | [4] -0.145 | [5] 0.029 | saracatinib -0.274

Fetched one by one from above, 2 records:
FRYL isoform 2 (UniProt O94915)
inactive: [4] 0.191 | [5] -0.112

GALNT11 (UniProt Q8NCW6)
inactive: vemurafenib 0.009 | [1] 0.097 | [2] 0.035 | volasertib -0.055 | [3] 0.063 | [4] -0.244 | [5] 0.078 | saracatinib 0.071 | sotrastaurin -0.019

(next part)

FZR1 isoform 2 (UniProt Q9UM11)
inactive: barasertib 0.026 | [4] 0.037 | [5] 0.032

FUT11 (UniProt Q495W5)
inactive: [1] -0.14 | barasertib -0.158 | [2] 0.001 | volasertib 0.17 | [3] 0.022 | [4] 0.118 | [5] -0.068 | sotrastaurin 0.062
